Test results as given in patent US20190389850A1, “COMPOUNDS” (GLAXOSMITHKLINE INTELLECTUAL PROPERTY DEVELOPMENT LIMITED, priority 2017, published 2019).
Some of these results come from one statement about several compounds together.

Amino acid sequences for entries named in this document (tags omitted). A change or cut given only in a name is not applied to a line headed by its entry.
UniProt Q5S007: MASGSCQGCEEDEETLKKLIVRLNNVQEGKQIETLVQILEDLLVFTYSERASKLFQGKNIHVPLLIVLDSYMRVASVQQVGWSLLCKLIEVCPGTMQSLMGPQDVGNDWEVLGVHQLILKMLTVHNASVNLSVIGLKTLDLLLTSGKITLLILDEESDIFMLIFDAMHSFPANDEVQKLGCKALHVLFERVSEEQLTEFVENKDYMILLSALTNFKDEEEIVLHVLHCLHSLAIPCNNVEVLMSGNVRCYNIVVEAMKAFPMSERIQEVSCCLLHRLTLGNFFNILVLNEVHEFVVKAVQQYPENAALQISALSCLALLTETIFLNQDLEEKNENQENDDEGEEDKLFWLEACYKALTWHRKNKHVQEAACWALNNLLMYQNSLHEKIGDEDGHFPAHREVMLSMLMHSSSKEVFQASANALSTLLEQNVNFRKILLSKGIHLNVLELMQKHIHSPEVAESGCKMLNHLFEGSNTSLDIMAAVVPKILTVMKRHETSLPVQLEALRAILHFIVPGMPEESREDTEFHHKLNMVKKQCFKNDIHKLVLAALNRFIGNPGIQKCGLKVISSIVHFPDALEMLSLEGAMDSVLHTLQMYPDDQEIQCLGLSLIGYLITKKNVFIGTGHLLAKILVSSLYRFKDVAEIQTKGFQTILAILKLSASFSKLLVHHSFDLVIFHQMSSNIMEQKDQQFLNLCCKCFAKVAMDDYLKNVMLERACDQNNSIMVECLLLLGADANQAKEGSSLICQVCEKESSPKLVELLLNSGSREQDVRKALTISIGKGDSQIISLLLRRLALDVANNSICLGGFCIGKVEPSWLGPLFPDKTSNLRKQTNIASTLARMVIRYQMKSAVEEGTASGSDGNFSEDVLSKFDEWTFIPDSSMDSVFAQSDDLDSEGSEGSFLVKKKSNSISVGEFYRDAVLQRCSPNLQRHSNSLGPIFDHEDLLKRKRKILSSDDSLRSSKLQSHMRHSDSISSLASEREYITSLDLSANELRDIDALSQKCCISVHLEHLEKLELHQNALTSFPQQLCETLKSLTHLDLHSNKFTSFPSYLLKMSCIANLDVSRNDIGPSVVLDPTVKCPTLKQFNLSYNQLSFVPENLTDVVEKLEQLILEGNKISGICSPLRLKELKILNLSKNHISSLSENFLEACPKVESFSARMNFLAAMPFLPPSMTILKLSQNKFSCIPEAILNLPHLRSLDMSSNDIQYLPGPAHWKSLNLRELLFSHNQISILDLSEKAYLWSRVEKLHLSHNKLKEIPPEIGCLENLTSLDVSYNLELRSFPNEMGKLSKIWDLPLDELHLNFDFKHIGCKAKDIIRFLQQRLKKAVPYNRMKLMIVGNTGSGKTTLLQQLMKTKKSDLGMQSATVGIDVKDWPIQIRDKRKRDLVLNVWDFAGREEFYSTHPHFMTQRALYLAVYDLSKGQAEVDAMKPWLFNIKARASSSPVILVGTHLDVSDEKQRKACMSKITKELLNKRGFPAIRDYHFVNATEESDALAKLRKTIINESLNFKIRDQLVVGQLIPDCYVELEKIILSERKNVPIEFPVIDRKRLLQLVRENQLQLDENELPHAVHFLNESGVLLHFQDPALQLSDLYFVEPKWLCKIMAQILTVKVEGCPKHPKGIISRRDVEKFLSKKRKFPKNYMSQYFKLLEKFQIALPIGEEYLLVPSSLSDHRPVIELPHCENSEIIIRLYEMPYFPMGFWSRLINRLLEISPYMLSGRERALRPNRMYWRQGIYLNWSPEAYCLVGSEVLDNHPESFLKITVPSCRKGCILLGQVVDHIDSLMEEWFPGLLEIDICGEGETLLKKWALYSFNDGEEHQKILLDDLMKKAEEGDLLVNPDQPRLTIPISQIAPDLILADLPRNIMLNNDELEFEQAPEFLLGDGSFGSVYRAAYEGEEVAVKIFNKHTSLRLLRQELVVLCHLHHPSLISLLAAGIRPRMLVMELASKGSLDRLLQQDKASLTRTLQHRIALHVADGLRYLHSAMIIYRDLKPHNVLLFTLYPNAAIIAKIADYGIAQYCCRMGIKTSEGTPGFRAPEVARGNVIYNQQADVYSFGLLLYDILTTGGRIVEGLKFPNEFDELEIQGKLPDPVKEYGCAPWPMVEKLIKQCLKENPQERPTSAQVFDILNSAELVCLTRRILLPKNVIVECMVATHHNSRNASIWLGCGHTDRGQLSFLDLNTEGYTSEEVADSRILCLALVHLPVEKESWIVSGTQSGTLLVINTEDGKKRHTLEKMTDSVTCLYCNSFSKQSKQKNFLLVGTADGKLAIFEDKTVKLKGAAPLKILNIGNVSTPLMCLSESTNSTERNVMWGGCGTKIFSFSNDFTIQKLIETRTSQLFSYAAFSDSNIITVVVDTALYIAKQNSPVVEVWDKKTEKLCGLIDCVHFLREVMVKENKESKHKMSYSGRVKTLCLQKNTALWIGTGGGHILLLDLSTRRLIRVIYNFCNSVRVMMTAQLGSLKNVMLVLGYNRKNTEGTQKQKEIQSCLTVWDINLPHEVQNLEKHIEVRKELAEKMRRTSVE

Molecular target: T1, recombinant full length LRRK2 protein (LRRK2 Ser935 phosphorylation) (Homo sapiens, UniProt Q5S007)
T1 construct: A BacMam virus expressing full length recombinant LRRK2 was purchased from Invitrogen; host or cells: SH-SY5Y human neuroblastoma cells transduced with BacMam LRRK2 virus
Assay: Recombinant cellular LRRK2 AlphaScreen assay
Assay type: cell-based
Details: SH-SY5Y cells over-expressing recombinant full length LRRK2, 60 minutes
Description: b. Recombinant Cellular LRRK2 AlphaScreen Assay
To determine the activity of compounds against LRRK2 kinase activity in cells, the observed LRRK2 kinase-dependent modulation of LRRK2 Ser 935 phosphorylation (Dzamko et al., 2010, Biochem. J. 430: 405-413) was utilized to develop a quantitative 384 well plate-based immunoassay of LRRK2 Ser935 phosphorylation in the human neuroblastoma cell line SH-SY5Y, engineered to over-express recombinant full length LRRK2 protein.
A BacMam virus expressing full length recombinant LRRK2 was purchased from Invitrogen and amplified by inoculation of SF-9 cells at MOI 0.3 for 4-5 days in Sf-900 III SFM medium supplemented with 3% fetal bovine serum. Infected cell cultures were then centrifuged at 2000 g for 20 minutes, viral supernatant titer determined by anti-gp64 plaque assay and stored at 4° C.
Affinity-purified anti-phospho LRRK2 Ser935 sheep polyclonal antibody (Dzamko et al., 2010, Biochem. J. 430: 405-413) was biotinylated by standard methods (PerkinElmer). Anti-LRRK2 rabbit polyclonal antibody was purchased from Novus Biologicals. AlphaScreen Protein A IgG Kit (including acceptor and donor beads) was purchased from Perkin Elmer.
SH-SY5Y cells were grown in DMEM/F12 medium with 10% dialysed fetal bovine serum and harvested by treatment with 0.5% trypsin-EDTA for 5 minutes at 37° C. followed by centrifugation at 1000 rpm for 4 minutes. […]

## (R)-tert-Butyl 4-(1-(2-methoxy-6-(3-methylmorpholino)pyrimidin-4-yl)-5-methyl-1H-indazol-6-yl)piperidine-1-carboxylate [Example C-3]
  pIC50 in the recombinant cellular LRRK2 AlphaScreen assay: ≥ 7.0

## (S)-tert-Butyl 4-(1-(6-(3-(hydroxymethyl)morpholino)-2-methoxypyrimidin-4-yl)-5-methyl-1H-indazol-6-yl)piperidine-1-carboxylate [Example C-2]
  pIC50 in the recombinant cellular LRRK2 AlphaScreen assay: ≥ 7.0
